Data as given in patent publication US20240182585A1.
Results are given in words; binding and its absence hold for the method and conditions named. Some entries that bind do so weakly or less than the wild type.

T1: human GFRAL (form used in the screening of Examples 7 and 8 not stated) (human) (UniProt Q6UXV0)
T1 sequence: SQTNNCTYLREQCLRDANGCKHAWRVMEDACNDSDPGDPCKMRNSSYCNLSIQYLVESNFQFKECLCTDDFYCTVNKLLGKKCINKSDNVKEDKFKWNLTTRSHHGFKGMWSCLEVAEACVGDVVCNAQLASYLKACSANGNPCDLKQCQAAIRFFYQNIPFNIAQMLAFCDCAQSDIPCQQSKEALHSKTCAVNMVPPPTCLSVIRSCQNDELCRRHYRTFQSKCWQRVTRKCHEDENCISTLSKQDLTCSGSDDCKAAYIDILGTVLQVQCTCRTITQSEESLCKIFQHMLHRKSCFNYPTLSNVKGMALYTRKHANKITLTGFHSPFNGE


target: T1, human GFRAL (form used in the screening of Examples 7 and 8 not stated) (human); assay: assay not described

Binder | binding
QUEL-0102 (antibody, V domains shown) VH: QVQLVESGGGVVQPGRSLRLSCAASGFTLKNYGMHWVRQGPGKGLEWVAIISYDGTFKYSVDSVKGRFTISRDNSKNTLYLQMNSLRTEDTALYYCAKEAGDFYGSGSYGYHKYGLDVWGQGTTVTVSS VL: DVQMTQSPSSLSASVGDRVTITCRASQDISNYLAWYQQQPGKVPKLLIYAASTLQSGVPSRFSGSGSGTDFTLTISSLQPEDVASYYCQKYNSAPLTFGGGTEVEIK | binds
QUEL-0103 (antibody, V domains shown) VH: QVQLVESGGGVVQPGRSLRLSCAASGFTFNNYGMHWVRQGPGKGLEWVAIISYDGTTKYSVDSVKGRFTISRDNSKNTLYLQMNSLRTEDTALYFCAKEAGDFYGSGNYGYHKYGLDVWGQGTTVTVSS VL: DIQMTQSPSSLSASVGDRVTITCRASQDISNYLAWYQQKPGKVPKLLIYAASTLQSGVPSRFSGSGSGTDFTLTISSLQPEDVASYYCQKYNSAPLTFGGGTEVEIK | binds

Further lines, results first:

binding | Binder
binds | QUEL-0105 (antibody, V domains shown) VH: QVQLVESGGDVVQPGRSLRLSCAASGFTFKNYGMHWVRQGLGKGLEWVAIISYDGTTKYSVDSVKGRFTISRDNSKNTLYLQMNSLRTEDTALYYCAKEAGDFYGSGNYGYYYYGLDVWGQGTTVTVSS VL: DIQMTQSPSSLSASVGDRVTITCRANQDISNYLAWYQQKPGKFPKLLIYAASTLQSGVPSRFSGSGSGTDFTLTISSLQPEDVATYYCQKYNSAPLTFGGGTKVEIK
binds | QUEL-0104 (antibody, V domains shown) VH: QVQLVESGGGVVQPGRSLRLSCAASGFTFNNYGMHWVRQGPGKGLEWVAIISYDGTTKYSVDSVKGRFTISRDNSKNTLYMQMDSLRTEDTALYYCAKEAGDFYGSGNYGYLYYGLDVWGQGTTVTVSS VL: DIQMTQSPSSLSASVGDRVTITCRASQDISNYLAWYQQKPGKVPNLLIFAASTLQSGVPSRFSGSGSGTDFTLTISSLQPEDVATYYCQKYNSAPLTFGGGTKVEIN
